# Laboratory results reported in PubChem BioAssay AID2685 (National Center for Advancing Translational Sciences (NCATS), 2010).
# The other results are listed elsewhere or left out. Further columns of the screen follow, without active or inactive calls. The list favours compounds with an active or inconclusive main result. The note in brackets gives the kind of curve behind each potency; many fits are weak.
# Assay: qHTS Assay for Lipid Storage Modulators in Drosophila S3 Cells;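 as to cell number change: cells counted by Cell Tracker Red CMTPX staining in the red channel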
# Details: BODIPY lipid droplet fluorescence, 18-24 h; for cell number change: measured here: cell count max response, cells fed with added oleic acid
# How it was run: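 Laser-scanning cytometry quantifies lipid droplet accumulation (500–530 nm total intensity; droplet/cell object ratio) in oleic acid-fed (400 uM added) Drosophila S3 cells treated with a concentration series. 20 uM Triacsin C defined 100% inhibition.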
# [1] = measured here: lipid fluorescence (Fed channel) AC50, cells fed with added oleic acid
# [2] = measured here: cell number channel AC50, cells fed with added oleic acid
SMILES,cell number change [%],AC50 [1],AC50 [2]
CCOc1ccc(N2CC(C(=O)NCc3ccc4c(c3)OCO4)CC2=O)cc1 (stereo not given),6.94,"6.51 µM [falling, partial curve, poor fit]",–
CCn1cc(/C=C(\NC(=O)c2ccccc2Cl)C(=O)N2CCN(C)CC2)c2ccccc21,31.6,"29.1 µM [rising, single point]","6.51 µM [rising, partial curve, poor fit]"
Cc1c(S(=O)(=O)N2CCN(C(=O)c3ccco3)CC2)c(=O)n(C)c(=O)n1C,-92.9,"29.1 µM [falling, partial curve]","29.1 µM [falling, single point]"
O=C(OCc1cccc([N+](=O)[O-])c1)c1cnccn1,22.1,–,–
NC(=O)C1(c2ccccc2)CCOCC1,-17.9,"1.3 µM [falling, full curve, poor fit]",–
COC(=O)CSc1nccc(-c2cccs2)n1,-24.4,–,"0.058 µM [falling, full curve, poor fit]"
Cc1ccc(C)c(Oc2coc3cc(OCC(=O)Nc4ccccc4C(C)C)ccc3c2=O)c1,-9.28,–,–
Cc1ccccc1Cn1nc(C)c(NC(=O)c2cc(CC(C)C)on2)c1C,5.68,"1.3 µM [rising, full curve, poor fit]",–
Cc1ccc(C2C(C#N)=C3N=C(N)c4ccccc4N3C3=C2C(=O)CCC3)cc1 (stereo not given),14.7,"3.26 µM [rising, single point]","0.517 µM [rising, full curve, poor fit]"
O=C(CSc1nnc2c(n1)[nH]c1ccc(F)cc12)NCc1ccc(F)cc1,87.8,–,"23.1 µM [rising, partial curve]"
COCCn1c(-c2ccc(NC(C)=O)cc2)nc2c1c(=O)[nH]c(=O)n2CC(C)C,4.17,"6.51 µM [falling, single point]",–
CCN1CCN(c2ccc(S(=O)(=O)N3CCCCC3)cc2NC(=O)/C=C/c2cccc(OC)c2OC)CC1,-12.4,"11.6 µM [falling, single point]",–
COc1cc(C2C(=O)c3ccccc3C2=O)ccc1O,-33.1,–,–
CCCCCCn1c(N)c(C#N)c2ccc([N+](=O)[O-])cc2c1=O,11,"1.46 µM [rising, partial curve]","1.16 µM [rising, full curve, poor fit]"
CCc1cc(/C(Cc2ccccn2)=N\O)c(O)cc1O,-12.2,"16.4 µM [falling, single point]",–
Cn1c(CSCc2ccc(F)cc2)nnc1SCC(=O)Nc1nccs1,-24.3,"10.3 µM [rising, single point]",–
CCCN(CC(=O)Nc1ccc(Cl)cc1Cl)C(=O)/C=C/c1ccco1,-16.7,"9.2 µM [falling, single point]",–
Cc1ccc2nc(-c3ccc(NC(=S)NC4CC(C)(C)NC(C)(C)C4)cc3)sc2c1,-48.5,"20.6 µM [falling, single point]","1.3 µM [falling, full curve]"
COc1ccc(N=C2C(=Nc3ccc(OC)cc3)N(c3ccc(OC)cc3)C(=S)N2c2ccccc2)cc1,-38,–,"3.66 µM [falling, full curve]"
CC1(C(=O)O)CCC(C(=O)Nc2ccc(S(N)(=O)=O)cc2)C1(C)C (stereo not given),11.4,"0.326 µM [rising, partial curve, poor fit]",–

SMILES,cell number change [%],AC50 [1],AC50 [2]
Cc1ccc(C(=O)NCCSCc2ccc(Cl)cc2Cl)cc1[N+](=O)[O-],33,"5.17 µM [rising, partial curve, poor fit]","32.6 µM [rising, single point]"
CCc1cc(-c2[nH]ncc2-c2ccc3c(c2)OCO3)c(O)cc1O,-55.6,"25.9 µM [falling, partial curve]","23.1 µM [falling, partial curve]"
O=C(Nc1ccnn1C1CCN(C(=O)CCc2ccc(F)cc2)CC1)C1CCOC1 (stereo not given),-9.42,"3.16 µM [falling, single point]",–
Cc1cccnc1NC(=S)Nc1ccc(Br)cc1Cl,-9.49,–,–
COc1ccc(NC(=O)CN2CCN(CC(=O)Nc3ccccc3F)CC2)cc1OC,17,–,–
O=C(Nc1cc(=O)[nH]c(=O)[nH]1)c1cc(Cl)ccc1Cl,16.1,–,"0.0731 µM [rising, full curve, poor fit]"
COc1ccccc1C(=O)Nc1c[nH]c(=O)[nH]c1=O,-3.85,"29.1 µM [falling, single point]",–
Cc1nc(-c2ccc(NC(=O)Cc3ccccc3)cc2)cs1,319,–,–
N/C(=N\OC(=O)Cc1ccc(Cl)cc1)c1cccnc1,-4.61,–,–
O=C(Nc1nnc(-c2ccc3c(c2)CCCC3)o1)c1ccccc1,4.9,–,"6.51 µM [falling, single point]"
CCOCc1nnc(NC(=O)CSc2ccccc2)s1,96.6,"29.1 µM [rising, single point]","18.4 µM [rising, single point]"
CCOC(=O)N1CCN(S(=O)(=O)c2ccc(C(=O)N(CCN(CC)CC)c3nc4c(C)cccc4s3)cc2)CC1,39.7,"35.5 µM [rising, partial curve, poor fit]","35.5 µM [rising, partial curve]"
Cc1ccc2[nH]c(C)c(CCNC(=O)c3c(N)no[n+]3[O-])c2c1,-22.6,"29.1 µM [falling, single point]",–
C#CCOCCOCCOCCNc1nc(N2CCN(C(=O)CCCCCCCCCCNC(=O)[C@H]([C@@H](C)CC)n3cc(CCCCCN)nn3)CC2)nc(N2CCN(C(=O)CCCCCCCCCCNC(=O)[C@H](CO)n3cc(CCCCCN)nn3)CC2)n1,–,"1.84 µM [falling, partial curve, poor fit]",–
N#Cc1c(SCC(=O)OCc2ccccc2)nsc1SCC(=O)OCc1ccccc1,1.82,"29.1 µM [falling, single point]",–
O=C1CS/C(=N/N=C/c2ccco2)N1Cc1ccc(F)cc1,55.9,–,"29.1 µM [rising, single point]"
Cc1ccc(N(Cc2cc3ccc(C)cc3[nH]c2=O)S(=O)(=O)c2ccccc2)cc1,-8.4,"14.6 µM [falling, partial curve, poor fit]",–
CCOc1ccc(N(CC(=O)O)S(=O)(=O)c2ccc(F)cc2)cc1,3.94,–,–
Cc1nc2ccccn2c1C(=O)CSc1ccc(Cl)cc1Cl,25,"6.51 µM [rising, partial curve]",–
O=C1NC[C@@H](Cc2ccc(O)cc2)N(CCc2cccc(F)c2)C1=O,13.9,–,–

SMILES,cell number change [%],AC50 [1],AC50 [2]
CCOc1ccc(NC(=O)N2CCC(c3ccc(C)cc3)C2)cc1 (stereo not given),2.84,–,–
C=CCn1c(SCc2ccc(OC)cc2)nnc1-c1cccnc1,-3.85,"0.13 µM [rising, full curve, poor fit]",–
O=C(/C=C/c1ccccc1)N/C(=C/c1ccccc1)C(=O)Nc1ccccc1O,136,–,–
Cc1cc2c(c(=O)o1)C1(C(=O)N(C)c3ccccc31)C(C#N)=C(N)O2 (stereo not given),-17.5,–,–
OC(c1ccccc1)C1CN(Cc2ccccc2)CCC1(O)c1ccccc1 (stereo not given),-9.79,"0.651 µM [falling, full curve, poor fit]",–
COC(=O)[C@H]1C[C@H](C(=O)O)[C@@H](C)C1(C)C,-19.8,"29.1 µM [falling, single point]",–
CCN(CC)S(=O)(=O)c1cc(NC(=O)COC(=O)C2CCC2)ccc1C,-11.5,"7.31 µM [falling, partial curve]",–
COc1cc(Cl)c(C)cc1NC(=O)c1cccc(OC)c1OC,131,–,"11.6 µM [rising, partial curve]"
O=C(CCCC(=O)OCC(=O)NC1CCCC1)Nc1ccccn1,-17.2,"8.2 µM [falling, partial curve]",–
O=C(NCc1ccccc1Cl)c1cc(C(=O)C2CC2)c[nH]1,-13,"35.5 µM [falling, single point]",–
COc1ccc(NC(=O)C(=O)NCC2CCCN2S(=O)(=O)c2cccs2)cc1 (stereo not given),-11.8,–,–
CCC(=O)Nc1ccc(-c2nnc(SCC(=O)N3CCCCC3)n2C)cc1,0.414,–,–
CCN(CC)S(=O)(=O)c1ccc(C)c(NC(=O)CNc2cccc(S(=O)(=O)N3CCOCC3)c2)c1,–,"6.51 µM [rising, single point]",–
COc1ccccc1N1CCN(C(=O)C2CCC(CNS(=O)(=O)c3ccc(NC(C)=O)cc3)CC2)CC1 (stereo not given),11,"0.206 µM [rising, full curve, poor fit]",–
CCOC(=O)CSc1nnc2c3ccccc3n(C)c2n1,1.29,–,–
CCOC(=O)c1ccc2c(c1)nc(SCC(=O)N1CCCCC1)n2CC,-7.56,"29.1 µM [falling, single point]",–
O=C(COc1ccc(Cl)cc1Cl)NCCCn1ccnc1,13.1,"0.58 µM [rising, full curve, poor fit]",–
CCOC(=O)/C(=C\Nc1ccc(OC(F)(F)F)cc1)Sc1ncc(C(F)(F)F)cc1Cl,36.9,"20.6 µM [rising, single point]","1.16 µM [rising, partial curve]"
Cc1ccc(C(=O)c2ccc([N+](=O)[O-])cc2)c(C)c1,-18.4,"29.1 µM [falling, single point]","1.84 µM [rising, partial curve]"
N#Cc1sc2nc(N3CCCCC3)c3c(c2c1N)CCCC3,-73,"14.6 µM [falling, partial curve]","13 µM [falling, partial curve]"

# Of the compounds above, these have a nitro group on carbon.
SMILES,cell number change [%],AC50 [1],AC50 [2]
O=C(OCc1cccc([N+](=O)[O-])c1)c1cnccn1,22.1,–,–
CCCCCCn1c(N)c(C#N)c2ccc([N+](=O)[O-])cc2c1=O,11,"1.46 µM [rising, partial curve]","1.16 µM [rising, full curve, poor fit]"
Cc1ccc(C(=O)NCCSCc2ccc(Cl)cc2Cl)cc1[N+](=O)[O-],33,"5.17 µM [rising, partial curve, poor fit]","32.6 µM [rising, single point]"
Cc1ccc(C(=O)c2ccc([N+](=O)[O-])cc2)c(C)c1,-18.4,"29.1 µM [falling, single point]","1.84 µM [rising, partial curve]"
